Laboratory results: PubChem BioAssay AID1259254 (NCATS, 2017)
Here is one part, drawn at random, of about 59,000 deposited reagents. About 1,550 of all reagents (2.6%) count as active. 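G2 share is only a proxy for re-replication; each gene was hit by three separate siRNAs, and active genes were retested.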 Entries without a mark were called inactive. The numbers tell different reagents against one gene apart. Further read-outs or replicates are left out here. Reagent sequences are not shown. The record does not give: the amount of reagent.

Aim: 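Gene knock-downs that lead to re-replication, shown by excess G2 DNA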 (primary screen)
Cells: human HCT116 colorectal cancer cells
Reagent: single siRNA against human genes
Duration: 3 days
Detection: 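Nuclei stained with Hoechst and imaged; cell-cycle phase assigned by DNA content; G2 share scaled per plate, non-targeting siRNA 0%, GMNN siRNA 100%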
Direction: G2 robust z-score and G2 cells, % of GMNN control: higher = more G2 cells, more excess DNA replication
Hit rule: 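Active siRNAs have a G2 robust z of 5 or more median absolute deviations over the median, which in these data means about 38% or higher of GMNN control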

no.	target gene	siRNA no.	G2 robust z-score	G2 cells, % of GMNN control
1	B3GALNT2 (beta-1,3-N-acetylgalactosaminyltransferase 2)	1	1.35	12.5
2	B3GALNT2 (beta-1,3-N-acetylgalactosaminyltransferase 2)	2	-0.437	-0.109
3	B3GALNT2 (beta-1,3-N-acetylgalactosaminyltransferase 2)	3	2.21	18.5
4	TSPY1 (testis specific protein Y-linked 1)	1	-0.434	-0.0896
5	TSPY1 (testis specific protein Y-linked 1)	2	1.18	11.3
6	TSPY1 (testis specific protein Y-linked 1)	3	-0.524	-0.719
7	FTSJ3 (FtsJ RNA 2'-O-methyltransferase 3)	1	-0.802	-2.68
8	FTSJ3 (FtsJ RNA 2'-O-methyltransferase 3)	2	0.156	4.06
9	FTSJ3 (FtsJ RNA 2'-O-methyltransferase 3)	3	1.74	15.2
10	HIBCH (3-hydroxyisobutyryl-CoA hydrolase)	1	0.387	5.69
11	HIBCH (3-hydroxyisobutyryl-CoA hydrolase)	2	-0.0604	2.54
12	HIBCH (3-hydroxyisobutyryl-CoA hydrolase)	3	2.6	21.2
13	GNA11 (G protein subunit alpha 11)	1	-0.364	0.406
14	GNA11 (G protein subunit alpha 11)	2	1.03	10.2
15	GNA11 (G protein subunit alpha 11)	3	1.73	15.2
16	UCP2 (uncoupling protein 2)	1	0.372	5.58
17	UCP2 (uncoupling protein 2)	2	-1.67	-8.78
18	UCP2 (uncoupling protein 2)	3	-0.43	-0.0578
19	YME1L1 (YME1 like 1 ATPase)	1	2.19	18.3
20	YME1L1 (YME1 like 1 ATPase)	2	-0.361	0.426
21	YME1L1 (YME1 like 1 ATPase)	3	-0.686	-1.86
22	PRRG3 (proline rich and Gla domain 3)	1	-0.697	-1.93
23	PRRG3 (proline rich and Gla domain 3)	2	0.501	6.49
24	PRRG3 (proline rich and Gla domain 3)	3	-0.518	-0.68
25	COG6 (component of oligomeric golgi complex 6)	1	-0.787	-2.57
26	COG6 (component of oligomeric golgi complex 6)	2	0.692	7.83
27	COG6 (component of oligomeric golgi complex 6)	3	-0.784	-2.55
28	CDC25B (cell division cycle 25B)	1	0.859	9.01
29	CDC25B (cell division cycle 25B)	2	-0.201	1.55
30	CDC25B (cell division cycle 25B)	3	2.06	17.5
31	TOP1MT (DNA topoisomerase I mitochondrial)	1	-0.0732	2.45
32	TOP1MT (DNA topoisomerase I mitochondrial)	2	-0.223	1.4
33	TOP1MT (DNA topoisomerase I mitochondrial)	3	-0.329	0.654
34	ASIC3 (acid sensing ion channel subunit 3)	1	-0.699	-1.95
35	ASIC3 (acid sensing ion channel subunit 3)	2	0.575	7.01
36	ASIC3 (acid sensing ion channel subunit 3)	3	0.619	7.32
37	PRKAR2B	1	1.03	10.2
38	PRKAR2B	2	-0.0208	2.82
39	PRKAR2B	3	1.19	11.3
40	SNCG (synuclein gamma)	1	1.34	12.4
41	SNCG (synuclein gamma)	2	-0.0487	2.63
42	SNCG (synuclein gamma)	3	-1.15	-5.15
43	HNRNPF (heterogeneous nuclear ribonucleoprotein F)	1	1.72	15.1
44	HNRNPF (heterogeneous nuclear ribonucleoprotein F)	2	-1.44	-7.14
45	HNRNPF (heterogeneous nuclear ribonucleoprotein F)	3	-0.684	-1.84
46	GUCA1B (guanylate cyclase activator 1B)	1	-0.455	-0.237
47	GUCA1B (guanylate cyclase activator 1B)	2	-0.805	-2.7
48	GUCA1B (guanylate cyclase activator 1B)	3	-0.614	-1.35
49	NFKBIZ (NFKB inhibitor zeta)	1	-0.624	-1.43
50	NFKBIZ (NFKB inhibitor zeta)	2	-0.214	1.46
51	NFKBIZ (NFKB inhibitor zeta)	3	-0.403	0.131
52	KAT5 (lysine acetyltransferase 5)	1	2.09	17.7
53	KAT5 (lysine acetyltransferase 5)	2	0.42	5.93
54	KAT5 (lysine acetyltransferase 5)	3	0.544	6.79
55	GSDMA (gasdermin A)	1	0.555	6.87
56	GSDMA (gasdermin A)	2	0.704	7.92
57	GSDMA (gasdermin A)	3	-0.016	2.85
58	RPL8 (ribosomal protein L8)	1	3.79	29.7
59	RPL8 (ribosomal protein L8)	2	3.77	29.5
60	RPL8 (ribosomal protein L8)	3	6.27 (active)	47.1
61	NCCRP1 (NCCRP1, F-box associated domain containing)	1	0.748	8.23
62	NCCRP1 (NCCRP1, F-box associated domain containing)	2	0.192	4.32
63	NCCRP1 (NCCRP1, F-box associated domain containing)	3	1.63	14.4
64	TOMM70 (translocase of outer mitochondrial membrane 70)	1	-0.392	0.208
65	TOMM70 (translocase of outer mitochondrial membrane 70)	2	0.388	5.7
66	TOMM70 (translocase of outer mitochondrial membrane 70)	3	-1.01	-4.12
67	OR6C1 (olfactory receptor family 6 subfamily C member 1)	1	-0.367	0.384
68	OR6C1 (olfactory receptor family 6 subfamily C member 1)	2	3.63	28.5
69	OR6C1 (olfactory receptor family 6 subfamily C member 1)	3	-0.665	-1.71

5 consecutive entries already listed, quoted:
no.	target gene	siRNA no.	G2 robust z-score	G2 cells, % of GMNN control
31	TOP1MT (DNA topoisomerase I mitochondrial)	1	-0.0732	2.45
32	TOP1MT (DNA topoisomerase I mitochondrial)	2	-0.223	1.4
33	TOP1MT (DNA topoisomerase I mitochondrial)	3	-0.329	0.654
34	ASIC3 (acid sensing ion channel subunit 3)	1	-0.699	-1.95
35	ASIC3 (acid sensing ion channel subunit 3)	2	0.575	7.01
